Results as given in paper PMC5181839.
Results are given in words; binding and its absence hold for the method and conditions named. Binding seen in cells or lysates may run through a third protein. Some binding calls cover weakened binding; strength is not graded here.

The chains behind the UniProt entries cited, without tags or fusion partners.
UniProt Q8K4Q0: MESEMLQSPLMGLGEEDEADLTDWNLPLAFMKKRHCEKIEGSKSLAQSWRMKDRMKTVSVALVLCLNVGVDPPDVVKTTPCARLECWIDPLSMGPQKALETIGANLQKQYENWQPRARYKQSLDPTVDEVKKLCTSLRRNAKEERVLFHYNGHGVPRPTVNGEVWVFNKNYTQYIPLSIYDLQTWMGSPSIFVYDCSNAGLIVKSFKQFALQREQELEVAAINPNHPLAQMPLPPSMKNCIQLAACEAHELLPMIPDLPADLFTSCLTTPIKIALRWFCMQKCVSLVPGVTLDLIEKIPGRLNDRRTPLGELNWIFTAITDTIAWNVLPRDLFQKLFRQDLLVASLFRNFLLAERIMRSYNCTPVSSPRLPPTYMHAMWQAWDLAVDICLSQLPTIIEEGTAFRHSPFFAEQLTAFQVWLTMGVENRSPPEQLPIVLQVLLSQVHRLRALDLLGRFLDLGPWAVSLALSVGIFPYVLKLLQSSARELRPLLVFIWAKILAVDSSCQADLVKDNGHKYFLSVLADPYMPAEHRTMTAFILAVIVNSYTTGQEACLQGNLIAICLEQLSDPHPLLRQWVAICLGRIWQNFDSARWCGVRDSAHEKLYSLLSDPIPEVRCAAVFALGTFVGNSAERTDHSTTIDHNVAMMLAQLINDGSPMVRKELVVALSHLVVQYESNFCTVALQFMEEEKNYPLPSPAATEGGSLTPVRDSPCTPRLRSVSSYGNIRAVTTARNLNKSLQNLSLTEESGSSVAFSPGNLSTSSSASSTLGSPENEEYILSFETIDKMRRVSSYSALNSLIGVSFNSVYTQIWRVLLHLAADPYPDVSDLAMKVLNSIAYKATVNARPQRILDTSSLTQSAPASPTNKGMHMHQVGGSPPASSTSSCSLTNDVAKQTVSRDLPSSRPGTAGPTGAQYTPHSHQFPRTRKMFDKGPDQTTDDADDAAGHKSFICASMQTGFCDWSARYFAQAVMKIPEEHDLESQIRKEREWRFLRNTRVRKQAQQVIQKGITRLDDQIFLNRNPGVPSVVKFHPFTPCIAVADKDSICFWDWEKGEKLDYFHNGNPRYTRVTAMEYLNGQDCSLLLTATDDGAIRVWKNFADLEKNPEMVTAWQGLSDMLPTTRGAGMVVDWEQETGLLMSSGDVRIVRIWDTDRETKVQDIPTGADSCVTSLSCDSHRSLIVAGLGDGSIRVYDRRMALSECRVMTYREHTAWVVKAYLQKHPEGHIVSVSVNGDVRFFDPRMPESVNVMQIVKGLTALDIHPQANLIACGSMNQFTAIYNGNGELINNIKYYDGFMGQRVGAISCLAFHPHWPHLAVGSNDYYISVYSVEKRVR
UniProt Q570Y9: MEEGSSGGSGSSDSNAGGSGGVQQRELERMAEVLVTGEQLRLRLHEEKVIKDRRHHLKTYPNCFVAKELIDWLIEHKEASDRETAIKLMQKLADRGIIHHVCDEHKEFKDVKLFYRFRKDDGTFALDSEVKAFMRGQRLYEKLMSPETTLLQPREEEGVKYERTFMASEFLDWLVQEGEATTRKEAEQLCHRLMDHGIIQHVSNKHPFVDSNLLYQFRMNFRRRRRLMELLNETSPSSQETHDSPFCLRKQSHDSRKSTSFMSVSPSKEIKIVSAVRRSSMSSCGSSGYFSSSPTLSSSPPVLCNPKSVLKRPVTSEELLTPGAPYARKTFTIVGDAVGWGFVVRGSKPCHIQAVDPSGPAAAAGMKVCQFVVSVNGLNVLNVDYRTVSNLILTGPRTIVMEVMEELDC

Molecular target: regulatory-associated protein of mTOR (raptor) (mouse (endogenous in 3T3-L1)) (UniProt Q8K4Q0)
Assay: co-IP; immunoprecipitates against raptor from 3T3-L1 cell lysates, western blotting for DEPTOR; cells undifferentiated or differentiated, in the absence or presence of 300 uM C8-PA

Substance: DEP domain-containing mTOR-interacting protein (DEPTOR) (from UniProt Q570Y9 1-409)
- binding: binds
